Screening data, single-dose tests

Each number is a percent effect as filed. The controls that fix the scale are not given in the record; negative values are as filed. Compounds were drawn at random from those tested, without regard to their results.

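Assay of Toxoplasma gondii numbers, read through their beta-galactosidase reporter with a colour substrate. Concentration: 10 µM. Higher reads as fewer parasites (inferred from which compounds were picked for retests). About 67,000 compounds were tested under these conditions; 0.38% (about 260) showed 50% or more at least once.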

| structure | percent effect |
|---|---|
| `CC1CCN(CCCNS(=O)(=O)c2cc(F)cc(F)c2)CC1.Cl` | -5.461% |
| `CC(C)(C)OC(=O)NCC1CCN(C(=O)c2cc(Cl)c[nH]2)CC1` | 1.935% |
| `CCS(=O)(=O)N1CCC(c2nnc(CN3CCOCC3)n2C)CC1` | -4.075% |
| `Clc1cc(N2CCN(C3CCOCC3)CC2)nc2[nH]ccc12` | 17.24% |
| `CC(=O)NCC1CCN(C(=O)c2csc(-c3ccc(C)cc3C)n2)CC1` | 5.6% |
| `CS(=O)(=O)NCCC1CN(Cc2ccccc2F)CCO1` (stereo not drawn) | -4.151% |
| `Cc1nc(-c2cnn(C)c2)sc1C(=O)NCc1ccc(C)n1C` | 6.043% |
| `O=C(O)C(F)(F)F.O=C(O)C(F)(F)F.c1cncc(OCc2nnn3c2CN(Cc2ccsc2)CCC3)c1` | 15.6% |
| `CC1CCN(C(=O)c2cnn3c(-c4ccco4)ccnc23)CC1` | 13.37% |
| `O=S1(=O)N=C(SCc2ccc(Cl)cc2)Nc2ccc(F)cc21` | -5.432% |
| `COc1cc(CN2CCC(COCc3ccccc3)CC2)cc(OC)c1` | -3.653% |
| `FC(F)(F)c1ccnc(N2CCCN(C3CCOCC3)CC2)c1` | 1.806% |
| `Cc1nnc2n1CCN(CC(=O)Nc1cc(C(C)C)no1)C2` | -0.1158% |
| `CCn1nc(C)cc1C(=O)N1C[C@@H](CN(C)C)[C@@H](CO)C1` | 13.07% |
| `O=C(O)C(F)(F)F.[H][C@@]12CN(C(=O)c3cccs3)C[C@]1([H])OCCN2CC1CCCO1` (stereo partly drawn) | -13.46% |
| `Cl.Cl.c1ccc(OC[C@@H]2CCC[C@@]23CNCCO3)nc1` | 0.4841% |
| `CCN1CCN(c2ccc(CNC(=O)c3c(C)noc3C)cn2)CC1` | 7.633% |
| `Cc1cnc(N2CCOCC3(CCN(c4ccccn4)C3)C2)nc1.O=C(O)C(F)(F)F.O=C(O)C(F)(F)F` (stereo not drawn) | 8.437% |
| `Cc1nc(C2CCCN2C(=O)c2cnns2)no1` (stereo not drawn) | -3.246% |
| `CC(C)Cc1nc(CCn2ccc(=O)[nH]c2=O)n(-c2ccccn2)n1` | 2.087% |
| `COc1ccc(C(=O)N2CCCCC2Cn2cccn2)c(F)c1` (stereo not drawn) | 5.294% |
| `CCCS(=O)(=O)N1CCC2(CC1)CC(=O)N(Cc1cc(F)cc(F)c1)C2` | 7.585% |
| `CC(C)=CCN1C[C@@H](C(=O)O)C[C@H](C(=O)Nc2ccc(C)nc2)C1` | -12.99% |
| `CCCc1cc(NCc2ccc(CO)cc2)n2nccc2n1` | -20.06% |
| `COCc1nc2cc(NCc3csc(C)n3)ccc2o1` | 0.268% |
| `O=c1cc(CSc2nnc[nH]2)nc2sc3c(n12)CCCC3` | 4.717% |
| `O=C(O)CC(O)(CC(=O)O)C(=O)O.c1cnc2[nH]nc(C3CCN(Cc4ccsc4)CC3)c2c1` | 1.605% |
| `CC(C)Cc1cc(CNC(=O)c2cccc3c2OCC3)no1` | -41.64% |
| `Cc1n[nH]c(C)c1CN(C)C(C(=O)O)c1c(F)cccc1OC(C)C` (stereo not drawn) | -2.575% |
| `CC(C)C(NC(=O)c1nc(N2CCOCC2)ncc1Cl)c1cccs1` (stereo not drawn) | 10.04% |
| `COc1ccc(Cl)cc1-c1cc(NC(=O)CNC(=O)C2CC2)[nH]n1` | -4.375% |
| `CC(C)c1ccc(-c2nonc2N)cc1` | -6.768% |
| `COc1cc(NC(=O)NC(C2CC2)C2CC2)ccc1N1CCOC1=O` | 0.4142% |
| `N#Cc1cccc(C(=O)N2C[C@H](CO)C[C@H](CN3CCCC3)C2)c1` | -24.29% |
| `O=C(O)c1nnn(-c2ccc(OC(F)(F)F)cc2)c1-c1ccncc1` | -3.268% |
| `Cc1nccc(CNC(=O)Nc2cc(C(F)(F)F)c[nH]c2=O)n1` | -17.03% |
| `CC(C)CCN1CCc2cc(C(=O)N(C)C)c(NCC3CC3)nc2CC1.O=C(O)C(F)(F)F.O=C(O)C(F)(F)F` | 0.07427% |
| `OC1(CN2CCC(Oc3cccc(C(F)(F)F)c3)CC2)CCNC1` (stereo not drawn) | 31.03% |
| `Cc1ccc(C(=O)O)cc1S(=O)(=O)Nc1nn(-c2ccccc2)cc1C` | -4.488% |
| `CN(C)c1ncc(NS(=O)(=O)c2ccc(OC(F)(F)F)cc2)cn1` | 6.574% |
| `CCOCCNC(=O)Nc1cccc(-c2nccn2C)c1` | -3.662% |
| `COCc1ccccc1C(=O)N(C)Cc1ncc(C)c(OC)c1C` | 1.506% |
| `O=C(O)C(F)(F)F.O=C(O)C(F)(F)F.O=C(O)C(F)(F)F.c1ccc(Cn2cc3c(n2)C(CNCC2CCOCC2)OCC3)nc1` (stereo not drawn) | 3.831% |
| `Cc1noc(C)c1CN1CCC2(CC1)C(c1cnn(C)c1)CC(=O)N2C.O=C(O)C(F)(F)F` (stereo not drawn) | -14.92% |
| `CC(C)n1c2ccccc2c2c1cc(C(=O)N(C)C)n2C` | -26.97% |
| `CCC(=O)Nc1ccc2c(c1)C1(CCOCC1)CN2CCF.O=C(O)C(F)(F)F` | -38.62% |
| `O=C(O)c1cnc(OCC2CC2)c(Br)c1` | 6.761% |
| `COC(=O)c1cc(C2CC2)nc2c(C#N)cnn12` | -9.61% |
| `CC(NC(=O)N1CCN(CCc2ccccc2)CC1)c1nncn1C` (stereo not drawn) | 3.852% |
| `O=C(c1ccc(-n2cc(Br)cn2)cc1)N1CCN(c2cnccn2)CC1` | -1.772% |
| `COc1cc(C#N)ccc1OCC(=O)N(C1CC1)C(C)c1ccco1` (stereo not drawn) | 2.616% |
| `[H][C@]12CC[C@@]3(N=C(C)N(CC4CC4)C3=O)[C@@]1([H])CN(S(=O)(=O)CC(C)C)C2` | 7.131% |
| `CNC(=O)[C@@H]1CN(Cc2ccccc2)C[C@H]1C(=O)c1ccc(F)cc1` | 10.85% |
| `Cc1cnc(NC(=O)N2CCOCC2)s1` | 0.9438% |
| `Cc1oc(-c2nc(C#N)c(NC3CC3)o2)cc1S(=O)(=O)N1CCCC1` | 3.971% |
| `O=C(O)C(F)(F)F.[H][C@@]12CCCO[C@]1([H])[C@@H](OCc1cccnc1)CN2C(=O)c1occc1C` | -2.319% |
| `Cc1cnn(C2CCCN(C(=O)c3cc(-c4ccccc4C)n[nH]3)C2)c1` (stereo not drawn) | -39.17% |
| `CSCCC(=O)N1C[C@H](Nc2ccnc(C)n2)[C@@H](C(C)C)C1` | 13.01% |
| `CN(C)C(=O)C1CN(Cc2nccs2)CCN(S(C)(=O)=O)C1` (stereo not drawn) | 13.13% |
| `CNC(=O)NC1CC2(CCNCC2)c2ccc(C)cc21` (stereo not drawn) | -2.961% |
| `CNc1ncc(CN(C)C(=O)c2cccc(-n3cnnc3)c2)cn1` | 1.775% |
| `O=C(c1cnc(-c2ncccn2)s1)N1CCCC(n2cccn2)C1` (stereo not drawn) | 19.86% |
| `CC(C)N(C)[C@@H]1CCN(c2ncccn2)[C@H]1Cc1ccncc1.O=C(O)C(F)(F)F.O=C(O)C(F)(F)F` | 2.709% |
| `N#Cc1cccnc1N1CCC2(CCCN(C3CCOCC3)C2=O)C1` (stereo not drawn) | 8.456% |
| `O=C(NCC(O)c1ccccc1C(F)(F)F)c1cccnc1` (stereo not drawn) | 1.947% |
| `COc1cc(C)c(S(=O)(=O)CC(=O)N(C)C(C)C)cc1OC` | -2.89% |
| `[H][C@]12CC[C@@]3(N=C(c4ccccc4)NC3=O)[C@@]1([H])CN(Cc1ccco1)C2` | 3.098% |
| `Cc1nc(C2CCCCN2S(C)(=O)=O)no1` (stereo not drawn) | -4.014% |
| `CCOC(=O)c1ccc(CNC(=O)c2ccon2)o1` | -2.086% |
| `CC(C)(C)c1ncc(C(=O)N2CCN(C(=O)c3ccc[nH]3)CC2)c(O)n1` | -3.162% |
| `CC(C(=O)NCC1(c2cccc(Br)c2)CCC1)S(C)(=O)=O` (stereo not drawn) | 1.765% |
| `CCC1(C(=O)O)CCCN(C(=O)c2ccc(O)c(Cl)c2)C1` (stereo not drawn) | -2.92% |
| `Cc1ccc(-n2ncc(C(=O)NC3CC(C)(C)NC(C)(C)C3)c2N)cc1` | 4.974% |
| `CC(C)c1nnc(CN(C)C(c2ccc(F)cc2)c2cccnc2)o1` (stereo not drawn) | -0.2564% |
| `COCCC1(C(=O)O)CCCN(CCOCc2ccccc2)C1` (stereo not drawn) | 0.06468% |
| `CC(C)N1CCC(CC(=O)NCCc2cc(O)ncn2)CC1` | 3.738% |
| `CCCN(C(=O)CN1CCn2c(nnc2C2CC2)C1)C1=CCCCC1` | 21.77% |
| `O=C(O)c1cn(CC2CCCN(c3nc4ccccc4s3)C2)nn1` (stereo not drawn) | -12.19% |
| `CNC(=O)C1CN(Cc2cc(C)on2)CCN(C(C)=O)C1` (stereo not drawn) | 12.68% |
| `Cc1cnn(CC2CCCCN2Cc2noc(C3CC3)n2)c1` (stereo not drawn) | -13.97% |
| `Cc1ccc(=O)n(CC2(O)CCN(Cc3cnc(C)nc3)CC2)n1` | 21.46% |
| `CC(=O)NCc1noc2c1CN(Cc1cccs1)CC2` | 9.096% |
| `CC(C)N(C)S(=O)(=O)NCc1cccnc1N(C)C` | -7.249% |
| `COc1ccccc1N1CC(NC(=O)c2cc(C(C)C)nn2C)CC1=O` (stereo not drawn) | -0.2674% |
| `CCc1nc2n(n1)CC(Nc1nc(C)cc(N(C)C)n1)CC2` (stereo not drawn) | -17.64% |
| `O=C(Cc1ccsc1)N1CCn2cc(CN3CCCC3)nc2C1` | 10.07% |
| `Cc1noc(C2CCC3(CCN(C(=O)c4ccnnc4)CC3)O2)n1` (stereo not drawn) | 19.24% |
| `COc1cccc(CN(C)Cc2[nH]c3ccccc3c2C)c1O` | -14.67% |
| `CNS(=O)(=O)c1ccc(C(=O)NCCNc2ncccn2)cc1` | -4.834% |
| `C[C@H](NS(C)(=O)=O)C(=O)NCc1cc(-c2ccco2)n[nH]1` | -43.18% |

5 of the entries, repeated:

* COc1cc(C)c(S(=O)(=O)CC(=O)N(C)C(C)C)cc1OC | -2.89%
* CC(=O)NCC1CCN(C(=O)c2csc(-c3ccc(C)cc3C)n2)CC1 | 5.6%
* CC(C)N1CCC(CC(=O)NCCc2cc(O)ncn2)CC1 | 3.738%
* N#Cc1cccc(C(=O)N2C[C@H](CO)C[C@H](CN3CCCC3)C2)c1 | -24.29%
* CC(C)c1nnc(CN(C)C(c2ccc(F)cc2)c2cccnc2)o1 (stereo not drawn) | -0.2564%

Data taken from ChEMBL document CHEMBL3988442, “University of Dundee, Small-Polar-MMV Screening Library” (2021).